These results are taken from the supplement of paper PMC4604168 (melanoma cell lines).

Molecules are shown by their SMILES. This is one part of the list. Single values are uncertain, as repeats are few or missing.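 Cells were imaged in 1,536-well plates, and nuclei stained with an antibody against cleaved PARP were counted against all DNA-stained nuclei to give the apoptosis fraction. Screening doses were chosen to leave most cells alive, and resting and induced cleaved-PARP levels differ strongly between cell lines.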

For one test, the system named is SkMel2. In words: cleaved PARP positive nuclei fraction relative to DMSO control; melanoma cells; higher = more apoptosis. The following applies: library dose: low library concentration; 72 h.
On to `COc1cc([C@@H]2c3cc4c(cc3[C@@H](O[C@@H]3O[C@@H]5CO[C@@H](C)O[C@H]5[C@H](O)[C@H]3O)[C@H]3COC(=O)[C@H]23)OCO4)cc(OC)c1O` [etoposide] + Cc1nc(Nc2ncc(C(=O)Nc3c(C)cccc3Cl)s2)cc(N2CCN(CCO)CC2)n1 [dasatanib] (first compound 0.02 µM, partner dose 0.004 µM), for which the “cleaved PARP positive nuclei fraction” value is 130%.
Regarding `CC[C@]1(O)C[C@H]2CN(CCc3c([nH]c4ccccc34)[C@@](C(=O)OC)(c3cc4c(cc3OC)N(C=O)[C@H]3[C@@](O)(C(=O)OC)[C@H](OC(C)=O)[C@]5(CC)C=CCN6CC[C@]43[C@@H]65)C2)C1` [vincristine] + Cc1ccc(Nc2nccc(N(C)c3ccc4c(C)n(C)nc4c3)n2)cc1S(N)(=O)=O [Pazopanib] (first compound 0.0001 µM, partner dose 0.4 µM), the “cleaved PARP positive nuclei fraction” value amounted to 165%.
For the molecule `O=C(/C=C/c1cccnc1)NCCCCC1CCN(C(=O)c2ccccc2)CC1` + Cn1c(=O)n(-c2ccc(C(C)(C)C#N)cc2)c2c3cc(-c4cnc5ccccc5c4)ccc3ncc21 [NVP-BEZ235] (first compound 0.01 µM, partner dose 0.004 µM), the “cleaved PARP positive nuclei fraction” value was determined as 1060%.
Consider `O=C(/C=C/c1cccnc1)NCCCCC1CCN(C(=O)c2ccccc2)CC1` + Cc1cn(-c2cc(NC(=O)c3ccc(C)c(Nc4nccc(-c5cccnc5)n4)c3)cc(C(F)(F)F)c2)cn1 [nilotinib] (first compound 0.01 µM, partner dose 0.2 µM), for which the “cleaved PARP positive nuclei fraction” value is 5350%.
Same read-out and setting: the same measure for `O=C(/C=C/c1cccnc1)NCCCCC1CCN(C(=O)c2ccccc2)CC1` + COCC[n+]1c2c(n(Cc3cnccn3)c1C)C(=O)c1ccccc1C2=O [YM155] (first compound 0.01 µM, partner dose 0.0004 µM): 1720%; for `COc1cc([C@@H]2c3cc4c(cc3[C@@H](O[C@@H]3O[C@@H]5CO[C@@H](C)O[C@H]5[C@H](O)[C@H]3O)[C@H]3COC(=O)[C@H]23)OCO4)cc(OC)c1O` [etoposide] + O=c1[nH]nc(Sc2ncc([N+](=O)[O-])s2)n1-c1ccc2c(c1)OCCO2 [BI78D3] (first compound 0.02 µM, partner dose 0.2 µM): 156%.
Still for that read-out and setting: the same measure for `Cc1cc(Nc2cc(N3CCN(C)CC3)nc(Sc3ccc(NC(=O)C4CC4)cc3)n2)n[nH]1` [Tozasertib] + C[C@@H](Oc1cc(-c2cnn(C3CCNCC3)c2)cnc1N)c1c(Cl)ccc(F)c1Cl [Crizotinib] (first compound 0.006 µM, partner dose 0.2 µM): 79.2%; for `O=C(Nc1cc(C(F)(F)F)cc(C(F)(F)F)c1)c1cc(Cl)ccc1O` + COCC[n+]1c2c(n(Cc3cnccn3)c1C)C(=O)c1ccccc1C2=O [YM155] (first compound 0.016 µM, partner dose 0.0004 µM): 110%.
Take `O=c1[nH]nc(Sc2ncc([N+](=O)[O-])s2)n1-c1ccc2c(c1)OCCO2` + CCCCCCCCc1ccc(CCC(N)(CO)CO)cc1 [fingolimod] (first compound 0.2 µM, partner dose 2 µM): the “cleaved PARP positive nuclei fraction” value is 38.1%.

In the next test the test system is SkMel30. The description is as above. As to conditions: library dose: low library concentration; 72 h.
Take `Cc1cn(-c2cc(NC(=O)c3ccc(C)c(Nc4nccc(-c5cccnc5)n4)c3)cc(C(F)(F)F)c2)cn1` [nilotinib] + NC(=O)c1ccc(N(C(N)=O)c2c(F)cccc2F)nc1-c1ccc(F)cc1F [VX702] (first compound 0.2 µM, partner dose 0.4 µM): the “cleaved PARP positive nuclei fraction” value amounted to 75.1%.
The same measure, in the same setting: the same measure for `CC[C@]1(O)C[C@H]2CN(CCc3c([nH]c4ccccc34)[C@@](C(=O)OC)(c3cc4c(cc3OC)N(C=O)[C@H]3[C@@](O)(C(=O)OC)[C@H](OC(C)=O)[C@]5(CC)C=CCN6CC[C@]43[C@@H]65)C2)C1` [vincristine] + C[C@@H](N)c1ccc(C(=O)Nc2ccnc3[nH]ccc23)cc1 [RKI983] (first compound 0.0001 µM, partner dose 0.4 µM): 117%; for `Cc1cn(-c2cc(NC(=O)c3ccc(C)c(Nc4nccc(-c5cccnc5)n4)c3)cc(C(F)(F)F)c2)cn1` [nilotinib] + CC(C)C[C@H](NC(=O)[C@H](Cc1ccccc1)NC(=O)c1cnccn1)B(O)O [Bortezomib] (first compound 0.2 µM, partner dose 0.001 µM): 65.1%; for `O=C(Nc1cc(C(F)(F)F)cc(C(F)(F)F)c1)c1cc(Cl)ccc1O` + CC(=O)c1c(C)c2cnc(Nc3ccc(N4CCNCC4)cn3)nc2n(C2CCCC2)c1=O [palbociclib] (first compound 0.016 µM, partner dose 0.04 µM): 41.9%.
As to `O=C(Nc1cc(C(F)(F)F)cc(C(F)(F)F)c1)c1cc(Cl)ccc1O` + OCc1c[nH]c2ccccc12 [Indole-3-carbinol] (first compound 0.016 µM, partner dose 0.8 µM), the “cleaved PARP positive nuclei fraction” value came out at 95.6%.
On the same count and under the same terms, the same measure for `COc1cc([C@@H]2c3cc4c(cc3[C@@H](O[C@@H]3O[C@@H]5CO[C@@H](C)O[C@H]5[C@H](O)[C@H]3O)[C@H]3COC(=O)[C@H]23)OCO4)cc(OC)c1O` [etoposide] + CS(=O)(=O)CCNCc1ccc(-c2ccc3ncnc(Nc4ccc(OCc5cccc(F)c5)c(Cl)c4)c3c2)o1 [lapatinib] (first compound 0.02 µM, partner dose 0.8 µM): 132%; for `CCCCCCCCCCCCCCCCCCOP(=O)([O-])OC1CC[N+](C)(C)CC1` [Perifosine] + NC1(c2ccc(-c3nc4ccn5c(=O)[nH]nc5c4cc3-c3ccccc3)cc2)CCC1 [MK2206] (first compound 0.4 µM, partner dose 0.4 µM): 49.5%.
Still for that read-out and setting: the same measure for `N#CC[C@H](C1CCCC1)n1cc(-c2ncnc3[nH]ccc23)cn1` [ruxolitinib] + COc1ccc(Cl)c(Nc2nc3ccccc3nc2NS(=O)(=O)c2cccc(NC(=O)C(C)(C)N)c2)c1 [XL147] (first compound 1 µM, partner dose 0.8 µM): 22.3%; for `O=C(Nc1cc(C(F)(F)F)cc(C(F)(F)F)c1)c1cc(Cl)ccc1O` + COc1ccc(C2=N[C@@H](c3ccc(Cl)cc3)[C@@H](c3ccc(Cl)cc3)N2C(=O)N2CCNC(=O)C2)c(OC(C)C)c1 [Nutlin-3] (first compound 0.016 µM, partner dose 0.1 µM): 63.2%; for `Cc1cc(Nc2cc(N3CCN(C)CC3)nc(Sc3ccc(NC(=O)C4CC4)cc3)n2)n[nH]1` [Tozasertib] + CC[C@]1(O)C[C@H]2CN(CCc3c([nH]c4ccccc34)[C@@](C(=O)OC)(c3cc4c(cc3OC)N(C=O)[C@H]3[C@@](O)(C(=O)OC)[C@H](OC(C)=O)[C@]5(CC)C=CCN6CC[C@]43[C@@H]65)C2)C1 [vincristine] (first compound 0.006 µM, partner dose 0.0001 µM): 242%.
For `CC[C@]1(O)C[C@H]2CN(CCc3c([nH]c4ccccc34)[C@@](C(=O)OC)(c3cc4c(cc3OC)N(C=O)[C@H]3[C@@](O)(C(=O)OC)[C@H](OC(C)=O)[C@]5(CC)C=CCN6CC[C@]43[C@@H]65)C2)C1` [vincristine] + COc1ccc(Cl)c(Nc2nc3ccccc3nc2NS(=O)(=O)c2cccc(NC(=O)C(C)(C)N)c2)c1 [XL147] (first compound 0.0001 µM, partner dose 0.8 µM), the “cleaved PARP positive nuclei fraction” value is 175%.
On to `Cc1cn(-c2cc(NC(=O)c3ccc(C)c(Nc4nccc(-c5cccnc5)n4)c3)cc(C(F)(F)F)c2)cn1` [nilotinib] + COc1ccc(Cl)c(Nc2nc3ccccc3nc2NS(=O)(=O)c2cccc(NC(=O)C(C)(C)N)c2)c1 [XL147] (first compound 0.2 µM, partner dose 0.8 µM), for which the “cleaved PARP positive nuclei fraction” value came out at 97.5%.
As for `Cc1cc(Nc2cc(N3CCN(C)CC3)nc(Sc3ccc(NC(=O)C4CC4)cc3)n2)n[nH]1` [Tozasertib] + Nc1nc(F)nc2c1ncn2[C@@H]1O[C@H](CO)[C@@H](O)[C@@H]1O [fludarabine] (first compound 0.006 µM, partner dose 0.2 µM), the “cleaved PARP positive nuclei fraction” value is 1500%.
Turning to `O=C(/C=C/c1cccnc1)NCCCCC1CCN(C(=O)c2ccccc2)CC1` + CCCS(=O)(=O)Nc1ccc(F)c(C(=O)c2c[nH]c3ncc(Cl)cc23)c1F [PLX4720] (first compound 0.01 µM, partner dose 0.08 µM), the “cleaved PARP positive nuclei fraction” value is 97.8%.
Still for that read-out and setting: the same measure for `O=C(/C=C/c1cccnc1)NCCCCC1CCN(C(=O)c2ccccc2)CC1` + CC(=O)c1c(C)c2cnc(Nc3ccc(N4CCNCC4)cn3)nc2n(C2CCCC2)c1=O [palbociclib] (first compound 0.01 µM, partner dose 0.04 µM): 238%.
Same read-out and setting: the same measure for `CCCCCCCCCCCCCCCCCCOP(=O)([O-])OC1CC[N+](C)(C)CC1` [Perifosine] + CCCCCCCCc1ccc(CCC(N)(CO)CO)cc1 [fingolimod] (first compound 0.4 µM, partner dose 2 µM): 39.2%; for `CC[C@]1(O)C[C@H]2CN(CCc3c([nH]c4ccccc34)[C@@](C(=O)OC)(c3cc4c(cc3OC)N(C=O)[C@H]3[C@@](O)(C(=O)OC)[C@H](OC(C)=O)[C@]5(CC)C=CCN6CC[C@]43[C@@H]65)C2)C1` [vincristine] + Nc1ncn([C@H]2C[C@H](O)[C@@H](CO)O2)c(=O)n1 [decitabine] (first compound 0.0001 µM, partner dose 0.1 µM): 219%; for `O=c1[nH]nc(Sc2ncc([N+](=O)[O-])s2)n1-c1ccc2c(c1)OCCO2` + CC1(C)CCC(c2ccc(Cl)cc2)=C(CN2CCN(c3ccc(C(=O)NS(=O)(=O)c4ccc(N[C@H](CCN5CCOCC5)CSc5ccccc5)c(S(=O)(=O)C(F)(F)F)c4)cc3)CC2)C1 [ABT263] (first compound 0.2 µM, partner dose 0.4 µM): 182%.
